Our source for the binding values is publication PMC11672745.

Protein sequences, listed by entry. Tags and fused reporters are not part of them. Lines headed by an entry give the natural chain unless they say otherwise; changes in a name come on top.
UniProt L7QJV4: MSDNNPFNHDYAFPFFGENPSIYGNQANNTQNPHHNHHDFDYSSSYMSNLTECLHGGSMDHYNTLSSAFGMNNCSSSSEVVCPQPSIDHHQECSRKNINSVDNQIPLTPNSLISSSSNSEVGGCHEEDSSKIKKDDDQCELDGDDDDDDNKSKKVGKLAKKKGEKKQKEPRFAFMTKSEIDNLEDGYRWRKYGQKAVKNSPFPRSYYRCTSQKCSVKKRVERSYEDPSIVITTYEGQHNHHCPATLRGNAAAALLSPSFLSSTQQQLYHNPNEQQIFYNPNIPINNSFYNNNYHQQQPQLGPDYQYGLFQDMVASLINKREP
UniProt A0A3Q7FUH8: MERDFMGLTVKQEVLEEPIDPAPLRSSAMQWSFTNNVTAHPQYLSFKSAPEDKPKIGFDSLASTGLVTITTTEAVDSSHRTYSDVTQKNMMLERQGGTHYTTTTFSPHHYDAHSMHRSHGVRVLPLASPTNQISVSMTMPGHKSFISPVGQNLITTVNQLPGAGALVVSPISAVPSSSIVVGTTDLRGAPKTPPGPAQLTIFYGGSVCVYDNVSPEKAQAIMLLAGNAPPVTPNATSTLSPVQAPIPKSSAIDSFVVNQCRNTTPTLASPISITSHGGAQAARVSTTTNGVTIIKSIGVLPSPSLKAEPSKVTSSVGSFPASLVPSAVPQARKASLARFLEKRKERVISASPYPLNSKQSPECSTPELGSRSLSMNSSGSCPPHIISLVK
UniProt A0A3Q7H988: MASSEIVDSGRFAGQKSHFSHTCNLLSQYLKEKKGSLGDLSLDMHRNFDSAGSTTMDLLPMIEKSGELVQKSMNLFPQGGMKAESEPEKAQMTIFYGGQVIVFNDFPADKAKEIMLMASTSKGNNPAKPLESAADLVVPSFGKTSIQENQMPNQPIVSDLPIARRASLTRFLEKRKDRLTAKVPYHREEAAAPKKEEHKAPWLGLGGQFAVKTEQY
UniProt B6D1Q5: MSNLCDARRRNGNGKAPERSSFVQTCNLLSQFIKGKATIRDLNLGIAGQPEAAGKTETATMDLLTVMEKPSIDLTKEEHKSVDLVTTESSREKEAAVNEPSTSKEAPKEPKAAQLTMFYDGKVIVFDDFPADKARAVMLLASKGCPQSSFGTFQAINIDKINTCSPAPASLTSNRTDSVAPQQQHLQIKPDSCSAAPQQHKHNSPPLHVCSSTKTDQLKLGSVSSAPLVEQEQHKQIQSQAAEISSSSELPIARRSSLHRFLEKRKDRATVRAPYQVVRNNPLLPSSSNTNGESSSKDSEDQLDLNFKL

Results are given in words; binding and its absence hold for the method and conditions named. Binding calls can cover weak binding; strength is not graded here. For some of these results: Binding seen in cells or lysates may run through a third protein.

Test [1] deals with C-terminal part of LUC (cLUC)-fused SlWRKY30IIc (tomato (Solanum lycopersicum)) (UniProt L7QJV4). Briefly: split reporter; firefly luciferase complementation imaging (LCI); nLUC and cLUC fusions coexpressed in N. benthamiana leaves, imaged 50 h after injection.
For test [2], the target named is SlVQ15 fused with the DNA binding domain (BD) in pLexA (tomato (Solanum lycopersicum)). In words: two-hybrid; Y2H screening; SlVQ15 in pLexA (BD) as bait against a cDNA library from roots of 28-day-old CM seedlings infected with M. incognita for 24 h; 68 positive colonies.

“nLUC-fused SlJAZ5 (from UniProt A0A3Q7FUH8)”: the binding entry in test [1] is listed as “binds”. On the same count and under the same terms, for “nLUC-fused SlJAZ1 (from UniProt A0A3Q7H988)” the value was “binds”. Take “SlWRKY30IIc fragment aa 170-322 captured in the Y2H screen (from UniProt L7QJV4) (domain or fragment)”: the binding entry in test [2] was “binds”. For the substance nLUC-fused SlJAZ3 (from UniProt B6D1Q5), in test [1], the binding entry was “binds”.
